This assay deals with eukaryotic initiation factor 3 subunit EIF3B (human (endogenous in Jurkat)) (UniProt P55884). As to the kind of experiment: affinity purification with mass spectrometry.

By UniProt entry, the sequences of proteins in these tests, tags left out.
UniProt P55884: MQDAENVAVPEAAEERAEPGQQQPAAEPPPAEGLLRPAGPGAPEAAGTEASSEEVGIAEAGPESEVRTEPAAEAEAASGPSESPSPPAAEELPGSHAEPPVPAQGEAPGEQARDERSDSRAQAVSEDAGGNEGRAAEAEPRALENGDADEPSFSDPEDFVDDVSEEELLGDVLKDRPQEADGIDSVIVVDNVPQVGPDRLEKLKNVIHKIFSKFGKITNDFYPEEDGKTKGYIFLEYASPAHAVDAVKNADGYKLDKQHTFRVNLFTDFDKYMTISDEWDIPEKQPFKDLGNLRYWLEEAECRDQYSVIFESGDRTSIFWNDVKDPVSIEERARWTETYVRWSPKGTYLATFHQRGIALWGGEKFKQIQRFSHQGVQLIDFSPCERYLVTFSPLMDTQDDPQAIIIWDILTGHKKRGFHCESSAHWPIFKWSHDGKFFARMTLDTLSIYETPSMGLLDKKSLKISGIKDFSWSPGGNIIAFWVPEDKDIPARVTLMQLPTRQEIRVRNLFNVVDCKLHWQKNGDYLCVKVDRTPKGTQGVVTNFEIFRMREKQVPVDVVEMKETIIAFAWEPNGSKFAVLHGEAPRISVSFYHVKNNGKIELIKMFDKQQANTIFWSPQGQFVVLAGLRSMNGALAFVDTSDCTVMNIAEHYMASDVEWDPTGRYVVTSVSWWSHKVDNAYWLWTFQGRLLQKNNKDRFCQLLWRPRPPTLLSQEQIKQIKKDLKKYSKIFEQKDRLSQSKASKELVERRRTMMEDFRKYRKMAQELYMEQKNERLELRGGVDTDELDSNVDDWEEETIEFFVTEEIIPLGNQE
UniProt O15371: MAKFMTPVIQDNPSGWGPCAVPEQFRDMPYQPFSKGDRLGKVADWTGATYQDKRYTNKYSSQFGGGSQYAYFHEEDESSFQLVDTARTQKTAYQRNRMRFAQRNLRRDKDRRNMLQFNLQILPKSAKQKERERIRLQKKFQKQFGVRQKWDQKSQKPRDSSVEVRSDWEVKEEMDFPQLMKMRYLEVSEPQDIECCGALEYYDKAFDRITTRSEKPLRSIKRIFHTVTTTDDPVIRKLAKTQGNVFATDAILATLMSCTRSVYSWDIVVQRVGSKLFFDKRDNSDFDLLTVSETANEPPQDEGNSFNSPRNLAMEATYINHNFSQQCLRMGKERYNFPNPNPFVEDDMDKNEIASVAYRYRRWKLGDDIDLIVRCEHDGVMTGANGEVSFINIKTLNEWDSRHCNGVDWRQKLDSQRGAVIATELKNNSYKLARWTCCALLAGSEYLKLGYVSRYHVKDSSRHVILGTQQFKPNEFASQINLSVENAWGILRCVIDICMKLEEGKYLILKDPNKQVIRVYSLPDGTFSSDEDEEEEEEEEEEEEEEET
UniProt O00303: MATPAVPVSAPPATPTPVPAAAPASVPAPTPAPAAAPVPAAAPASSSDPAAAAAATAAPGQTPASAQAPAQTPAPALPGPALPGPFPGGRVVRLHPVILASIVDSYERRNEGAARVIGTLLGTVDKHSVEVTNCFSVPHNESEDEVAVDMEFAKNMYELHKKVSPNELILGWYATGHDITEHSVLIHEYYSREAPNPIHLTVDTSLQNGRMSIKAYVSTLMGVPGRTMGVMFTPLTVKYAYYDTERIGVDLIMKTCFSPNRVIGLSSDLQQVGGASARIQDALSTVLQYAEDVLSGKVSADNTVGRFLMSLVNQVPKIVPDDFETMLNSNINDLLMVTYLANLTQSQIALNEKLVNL

These are yes or no findings as the source states them, for the method shown. In cells and extracts the contact can be indirect. Here binding means that the protein was enriched with, or labelled near, the bait; the list need not be complete.

With “eukaryotic initiation factor 3 subunit EIF3D (from UniProt O15371 1-548)”, the binding result is given as “binds”.
As for “eukaryotic initiation factor 3 subunit EIF3F (from UniProt O00303 1-357)”, the binding result is reported as “binds”.

Source of the values: publication doi:10.1101/2019.12.20.885558.
